PubChem BioAssay AID1487 (National Center for Advancing Translational Sciences (NCATS), 2009)
Values joined by “and” are separate entries in the source; they are usually repeats but may differ in a detail not shown here. Equal entries are not always repeated. Some of the results follow. The main result of the screen is listed elsewhere. These columns were measured beside it and carry no call. Compounds called inactive in the main read-out are mostly missing here. Words in brackets tell the shape of the fitted curve; partial curves, single points and poor fits give uncertain potencies.

Test: qHTS Assay for Modulators of Lamin A Splicing
Details: HeLa LMNA splicing GFP/RFP minigene ratio, 48 h
Method in brief: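 S3 HeLa stable clones carrying a lamin A-EGFP splicing minigene plus DsRed2 were seeded at 600 cells/well in Opti-MEM with 2% FBS, pin-dosed and incubated 48 h at 37°C. Acumen cytometry (488 nm) gave the GFP/RFP total-intensity ratio.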

[1] = measured here: RFP viability control channel
[2] = measured here: GFP splicing reporter channel

| SMILES | AC50 [1] | AC50 [2] |
| --- | --- | --- |
| CC(NC(=O)c1ccco1)C(c1cccs1)N1CCN(c2ccccc2F)CC1 (centres undefined) | 35.5 µM [rising, single point] |  |
| CC(C)N(C(=O)Cn1c(Cl)nc2ccccc21)C(C)C | 0.0447 µM [falling, full curve, poor fit] | 0.0355 µM [falling, full curve, poor fit] |
| CCN1CC(CN(C)Cc2nc(-c3ccco3)oc2C)CC1=O (centres undefined) |  | 0.0891 µM [falling, full curve] |
| CN1CCN(c2nc(-c3cccnc3)nc3ccccc23)CC1 | 35.5 µM [rising, single point] | 35.5 µM [rising, single point] |
| CCNC(=O)c1c(C)nc2ccccn12 |  | 4.47 µM [falling, single point] |
| C[C@]12CC[C@@H]3c4ccc(O)cc4CC[C@H]3[C@@H]1CC[C@@H]2OC(=O)CCC(=O)O | 3.55 µM [falling, full curve, poor fit] | 0.0708 µM [falling, full curve] |
| O=C1/C(=C/c2ccco2)SC(=S)N1C1CCS(=O)(=O)C1 (centres undefined) | 2.82 µM [rising, partial curve] |  |
| COC(=O)c1cn(Nc2ncc(C(F)(F)F)cc2Cl)c(=O)c2ccccc12 | 14.1 µM [rising, single point] |  |
| O=C(Nc1ccc(F)cc1)c1ccc(CSc2ccccc2)o1 | 14.1 µM [rising, partial curve] |  |
| C/C(N)=C(/C#N)C(=O)COC(=O)CNS(=O)(=O)c1ccc(C)cc1 | 0.0447 µM [falling, full curve, poor fit] |  |
| Cc1sc(-c2ccccn2)nc1OC(=O)c1ccc(F)cc1F | 0.562 µM [rising, full curve, poor fit] |  |
| COc1ccccc1[C@@H]1C(c2cccc(Cl)c2)=NN(c2ccccc2)[C@H]1C(=O)N1CCOC1=O | 12.6 µM [rising, single point] |  |
| CCn1c(SCC(=O)Nc2ccccc2-c2ccccc2)nnc1-c1ccoc1C | 20 µM [rising, single point] | 31.6 µM [rising, single point] |
| O=C1CCN(C(=O)/C=C/c2ccccc2)c2ccccc21 | 22.4 µM [falling, partial curve, poor fit] |  |
| Cc1nc2ccccn2c1C(=O)NNC(=S)Nc1ccc(Cl)cc1 | 14.1 µM [rising, partial curve] | 8.91 µM [rising, partial curve] |
| COc1ccc2[nH]cc(CCCN3C(=O)c4ccccc4C3=O)c2c1 | 0.447 µM [rising, full curve, poor fit] |  |
| CCOc1ccc(C(CC(=O)O)NC(=O)C23CC4CC(CC(C4)C2)C3)cc1OC (centres undefined) | 0.00501 µM [falling, full curve, poor fit] |  |
| O=C(Cc1cccc2ccccc12)Nc1ccc(OC(F)F)c(Cl)c1 | 12.6 µM [rising, partial curve, poor fit] |  |
| O=C(CC1C(=O)NCCN1Cc1cccc(Oc2ccccc2)c1)NCc1cccnc1 (centres undefined) | 0.126 µM [falling, full curve] | 22.4 µM [falling, partial curve] |

Part of the list above in a different format:
SMILES	AC50 [1]	AC50 [2]
CC(C)N(C(=O)Cn1c(Cl)nc2ccccc21)C(C)C	0.0447 µM [falling, full curve, poor fit]	0.0355 µM [falling, full curve, poor fit]
O=C1/C(=C/c2ccco2)SC(=S)N1C1CCS(=O)(=O)C1 (centres undefined)	2.82 µM [rising, partial curve]	
O=C(Nc1ccc(F)cc1)c1ccc(CSc2ccccc2)o1	14.1 µM [rising, partial curve]	
O=C(CC1C(=O)NCCN1Cc1cccc(Oc2ccccc2)c1)NCc1cccnc1 (centres undefined)	0.126 µM [falling, full curve]	22.4 µM [falling, partial curve]

Later entries.

| SMILES | AC50 [1] | AC50 [2] |
| --- | --- | --- |
| Cc1ccc(S(=O)(=O)c2cn(Cc3ccc(F)cc3)c3cc(N4CCCC4)c(F)cc3c2=O)cc1 | 0.708 µM [falling, single point] | 0.1 µM [falling, single point] |
| O=C(c1cccnc1)N1N=C(C2CCCCC2)CC1(O)C(F)(F)F (centres undefined) | 0.0224 µM [falling, full curve] |  |
| CCc1ccccc1NC(=O)C(=O)NCCc1sc(-c2cccc(F)c2)nc1C | 0.282 µM [falling, full curve, poor fit] |  |
| CCN(CC)S(=O)(=O)c1cc(NC(=O)C(C)N2CCc3ccccc32)ccc1C (centres undefined) |  | 20 µM [falling, single point] |
| CCOC(=O)N1CCN(C(=O)CSCc2nc(-c3ccccc3C)oc2C)CC1 | 25.1 µM [rising, single point] | 25.1 µM [rising, single point] |
| O=[N+]([O-])c1cc(CN2CCN(c3ccccc3)CC2)c(O)c2ncccc12 | 3.16 µM [falling, full curve, poor fit] | 3.98 µM [falling, full curve, poor fit] |
| Clc1cccc(OCCN2CCN(CCOc3cccc(Cl)c3)CC2)c1 |  | 35.5 µM [falling, single point] |
| S=c1nc[nH]c2c1sc1nc(N3CCOCC3)c3c(c12)CCCC3 | 5.01 µM [rising, single point] |  |
| CC(C)(C(=O)O)c1ccc(C(O)CCCN2CCC(C(O)(c3ccccc3)c3ccccc3)CC2)cc1 (centres undefined) | 251 nM [falling, full curve, poor fit] and 158 nM [rising, full curve, poor fit] |  |
| O=C(Nc1ccc(F)c(Cl)c1)N1CCC(CN2CCc3ccccc3C2)CC1 | 22.4 µM [falling, single point] | 22.4 µM [falling, single point] |
| COC(=O)C1(C(=O)OC)Sc2ccccc2C1=O | 20 µM [falling, partial curve, poor fit] |  |
| Cc1ccc(N=C2S/C(=C\c3cn(CC(=O)O)c4ccccc34)C(=O)N2C)cc1 | 35.5 µM [rising, single point] | 35.5 µM [rising, single point] |
| CC#C[C@]1(O)CC[C@H]2C3CCC4=CC(=O)CCC4=C3[C@@H](c3ccc(N(C)C)cc3)C[C@@]21C (some centres undefined) | 5.62 µM [rising, partial curve] | 3.98 µM [falling, full curve, poor fit] |
| C=CCNc1nc(N)c(C(=C(C#N)C#N)c2ccc(Br)cc2)s1 | 17.8 µM [rising, partial curve] |  |
| O=C(CC(c1ccc(F)cc1)c1ccco1)Nc1nccs1 (centres undefined) |  | 1.58 µM [falling, partial curve, poor fit] |
| CCOc1ccc(NS(=O)(=O)c2ccc(OC)c(NC(=O)c3ccc4c(c3)OCCO4)c2)cc1 | 10 µM [rising, partial curve] |  |
| CCCCn1c(NC(=O)C2CCCCC2)nc2ccccc21 | 11.2 µM [rising, partial curve] |  |
| CCOC(=O)C(NC(C)=O)(Nc1ccc(S(N)(=O)=O)cc1)C(F)(F)F (centres undefined) | 35.5 µM [falling, single point] |  |
| O=C(Cn1nc(-c2ccccc2)nc1-c1ccccc1)OC1CCCCC1 | 12.6 µM [rising, single point] | 11.2 µM [rising, single point] |

| SMILES | AC50 [1] | AC50 [2] |
| --- | --- | --- |
| OC1(c2cccnc2)CCN(Cc2nnnn2C2CCCCC2)CC1 |  | 3.55 µM [falling, partial curve] |
| CCc1nc2ccccc2n1CC1CC1(Cl)Cl (centres undefined) | 0.00398 µM [rising, full curve, poor fit] | 0.00447 µM [rising, full curve, poor fit] |
| Cc1ccc(NC(=O)CSc2nc(C)c(C)c(C)n2)c([N+](=O)[O-])c1 | 20 µM [rising, single point] | 31.6 µM [rising, single point] |
| COc1ccc2c(c1)OC1(O)COc3cc(OC)c(OC)cc3C1=C2 (centres undefined) | 35.5 µM [rising, single point] | 14.1 µM [rising, single point] |
| CCOC(=O)C1=C(Cc2ccc(OC)cc2)C(=O)c2ccccc2C1=O | 11.2 µM [rising, partial curve] |  |
| O=C(Nc1ccc(C2CC2(Cl)Cl)cc1)c1ccccc1Br (centres undefined) | 35.5 µM [rising, partial curve, poor fit] |  |
| CCCc1n(CC(O)COCc2ccccc2)c2ccccc2[n+]1C (centres undefined) |  | 0.0794 µM [rising, full curve, poor fit] |
| O=C(NCc1ccc(Cl)cc1)C1CCCN(c2nc3ccccc3n3cccc23)C1 (centres undefined) | 20 µM [falling, single point] |  |
| CCN(c1ccc(OC)cc1)S(=O)(=O)c1ccc2[nH]c(=O)ccc2c1 | 8.91 µM [rising, partial curve] |  |
| C=CCn1c(SCC(=O)Nc2cccnc2Cl)nnc1-c1ccc(Cl)cc1 | 22.4 µM [rising, partial curve] |  |
| Cc1c(NC(=O)/C(C#N)=C/c2c(Oc3ccccc3)nc3ccccn3c2=O)c(=O)n(-c2ccccc2)n1C | 35.5 µM [rising, single point] |  |
| Nc1c(-c2nc(-c3cccs3)no2)nnn1-c1cccc(Cl)c1 |  | 0.158 µM [rising, full curve, poor fit] |
| Cc1cc(C2=NNC(=NC3CC3)SC2)c(C)n1-c1ccccc1F | 35.5 µM [rising, single point] |  |
| Cc1cc(NC(=O)C(=O)NCCN2CCN(C(=O)c3cccs3)CC2)ccc1Br | 15.8 µM [rising, single point] |  |
| CCOC(=O)/C(=N/Nc1ccc(OC)cc1)Sc1nnc(CCc2ccccc2)n1-c1ccccc1 |  | 35.5 µM [falling, single point] |
| CCc1ccc(Nc2ncnc3c2cnn3-c2cc(Cl)ccc2C)cc1 |  | 10 µM [falling, partial curve, poor fit] |
| Cc1cc(OCc2ccc(F)cc2)nc(-c2ccccc2O)n1 | 11.2 µM [rising, single point] | 10 µM [rising, partial curve, poor fit] |
| Cc1ccc(C)c(OCCCC(=O)Nc2nccs2)c1 | 8.91 µM [rising, partial curve] | 6.31 µM [rising, full curve] |
